# Test results reported in the supplement of paper PMC11732987, “Enantioselective OTUD7B fragment discovery through chemoproteomics screening and high-throughput optimisation” (Communications Chemistry, 2025).
# Amino acid sequences for entries named in this document (tags omitted). A change or cut given only in a name is not applied to a line headed by its entry. Residues count along the entry.
# UniProt Q5VZE5, 215-236: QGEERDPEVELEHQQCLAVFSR
# UniProt O75592: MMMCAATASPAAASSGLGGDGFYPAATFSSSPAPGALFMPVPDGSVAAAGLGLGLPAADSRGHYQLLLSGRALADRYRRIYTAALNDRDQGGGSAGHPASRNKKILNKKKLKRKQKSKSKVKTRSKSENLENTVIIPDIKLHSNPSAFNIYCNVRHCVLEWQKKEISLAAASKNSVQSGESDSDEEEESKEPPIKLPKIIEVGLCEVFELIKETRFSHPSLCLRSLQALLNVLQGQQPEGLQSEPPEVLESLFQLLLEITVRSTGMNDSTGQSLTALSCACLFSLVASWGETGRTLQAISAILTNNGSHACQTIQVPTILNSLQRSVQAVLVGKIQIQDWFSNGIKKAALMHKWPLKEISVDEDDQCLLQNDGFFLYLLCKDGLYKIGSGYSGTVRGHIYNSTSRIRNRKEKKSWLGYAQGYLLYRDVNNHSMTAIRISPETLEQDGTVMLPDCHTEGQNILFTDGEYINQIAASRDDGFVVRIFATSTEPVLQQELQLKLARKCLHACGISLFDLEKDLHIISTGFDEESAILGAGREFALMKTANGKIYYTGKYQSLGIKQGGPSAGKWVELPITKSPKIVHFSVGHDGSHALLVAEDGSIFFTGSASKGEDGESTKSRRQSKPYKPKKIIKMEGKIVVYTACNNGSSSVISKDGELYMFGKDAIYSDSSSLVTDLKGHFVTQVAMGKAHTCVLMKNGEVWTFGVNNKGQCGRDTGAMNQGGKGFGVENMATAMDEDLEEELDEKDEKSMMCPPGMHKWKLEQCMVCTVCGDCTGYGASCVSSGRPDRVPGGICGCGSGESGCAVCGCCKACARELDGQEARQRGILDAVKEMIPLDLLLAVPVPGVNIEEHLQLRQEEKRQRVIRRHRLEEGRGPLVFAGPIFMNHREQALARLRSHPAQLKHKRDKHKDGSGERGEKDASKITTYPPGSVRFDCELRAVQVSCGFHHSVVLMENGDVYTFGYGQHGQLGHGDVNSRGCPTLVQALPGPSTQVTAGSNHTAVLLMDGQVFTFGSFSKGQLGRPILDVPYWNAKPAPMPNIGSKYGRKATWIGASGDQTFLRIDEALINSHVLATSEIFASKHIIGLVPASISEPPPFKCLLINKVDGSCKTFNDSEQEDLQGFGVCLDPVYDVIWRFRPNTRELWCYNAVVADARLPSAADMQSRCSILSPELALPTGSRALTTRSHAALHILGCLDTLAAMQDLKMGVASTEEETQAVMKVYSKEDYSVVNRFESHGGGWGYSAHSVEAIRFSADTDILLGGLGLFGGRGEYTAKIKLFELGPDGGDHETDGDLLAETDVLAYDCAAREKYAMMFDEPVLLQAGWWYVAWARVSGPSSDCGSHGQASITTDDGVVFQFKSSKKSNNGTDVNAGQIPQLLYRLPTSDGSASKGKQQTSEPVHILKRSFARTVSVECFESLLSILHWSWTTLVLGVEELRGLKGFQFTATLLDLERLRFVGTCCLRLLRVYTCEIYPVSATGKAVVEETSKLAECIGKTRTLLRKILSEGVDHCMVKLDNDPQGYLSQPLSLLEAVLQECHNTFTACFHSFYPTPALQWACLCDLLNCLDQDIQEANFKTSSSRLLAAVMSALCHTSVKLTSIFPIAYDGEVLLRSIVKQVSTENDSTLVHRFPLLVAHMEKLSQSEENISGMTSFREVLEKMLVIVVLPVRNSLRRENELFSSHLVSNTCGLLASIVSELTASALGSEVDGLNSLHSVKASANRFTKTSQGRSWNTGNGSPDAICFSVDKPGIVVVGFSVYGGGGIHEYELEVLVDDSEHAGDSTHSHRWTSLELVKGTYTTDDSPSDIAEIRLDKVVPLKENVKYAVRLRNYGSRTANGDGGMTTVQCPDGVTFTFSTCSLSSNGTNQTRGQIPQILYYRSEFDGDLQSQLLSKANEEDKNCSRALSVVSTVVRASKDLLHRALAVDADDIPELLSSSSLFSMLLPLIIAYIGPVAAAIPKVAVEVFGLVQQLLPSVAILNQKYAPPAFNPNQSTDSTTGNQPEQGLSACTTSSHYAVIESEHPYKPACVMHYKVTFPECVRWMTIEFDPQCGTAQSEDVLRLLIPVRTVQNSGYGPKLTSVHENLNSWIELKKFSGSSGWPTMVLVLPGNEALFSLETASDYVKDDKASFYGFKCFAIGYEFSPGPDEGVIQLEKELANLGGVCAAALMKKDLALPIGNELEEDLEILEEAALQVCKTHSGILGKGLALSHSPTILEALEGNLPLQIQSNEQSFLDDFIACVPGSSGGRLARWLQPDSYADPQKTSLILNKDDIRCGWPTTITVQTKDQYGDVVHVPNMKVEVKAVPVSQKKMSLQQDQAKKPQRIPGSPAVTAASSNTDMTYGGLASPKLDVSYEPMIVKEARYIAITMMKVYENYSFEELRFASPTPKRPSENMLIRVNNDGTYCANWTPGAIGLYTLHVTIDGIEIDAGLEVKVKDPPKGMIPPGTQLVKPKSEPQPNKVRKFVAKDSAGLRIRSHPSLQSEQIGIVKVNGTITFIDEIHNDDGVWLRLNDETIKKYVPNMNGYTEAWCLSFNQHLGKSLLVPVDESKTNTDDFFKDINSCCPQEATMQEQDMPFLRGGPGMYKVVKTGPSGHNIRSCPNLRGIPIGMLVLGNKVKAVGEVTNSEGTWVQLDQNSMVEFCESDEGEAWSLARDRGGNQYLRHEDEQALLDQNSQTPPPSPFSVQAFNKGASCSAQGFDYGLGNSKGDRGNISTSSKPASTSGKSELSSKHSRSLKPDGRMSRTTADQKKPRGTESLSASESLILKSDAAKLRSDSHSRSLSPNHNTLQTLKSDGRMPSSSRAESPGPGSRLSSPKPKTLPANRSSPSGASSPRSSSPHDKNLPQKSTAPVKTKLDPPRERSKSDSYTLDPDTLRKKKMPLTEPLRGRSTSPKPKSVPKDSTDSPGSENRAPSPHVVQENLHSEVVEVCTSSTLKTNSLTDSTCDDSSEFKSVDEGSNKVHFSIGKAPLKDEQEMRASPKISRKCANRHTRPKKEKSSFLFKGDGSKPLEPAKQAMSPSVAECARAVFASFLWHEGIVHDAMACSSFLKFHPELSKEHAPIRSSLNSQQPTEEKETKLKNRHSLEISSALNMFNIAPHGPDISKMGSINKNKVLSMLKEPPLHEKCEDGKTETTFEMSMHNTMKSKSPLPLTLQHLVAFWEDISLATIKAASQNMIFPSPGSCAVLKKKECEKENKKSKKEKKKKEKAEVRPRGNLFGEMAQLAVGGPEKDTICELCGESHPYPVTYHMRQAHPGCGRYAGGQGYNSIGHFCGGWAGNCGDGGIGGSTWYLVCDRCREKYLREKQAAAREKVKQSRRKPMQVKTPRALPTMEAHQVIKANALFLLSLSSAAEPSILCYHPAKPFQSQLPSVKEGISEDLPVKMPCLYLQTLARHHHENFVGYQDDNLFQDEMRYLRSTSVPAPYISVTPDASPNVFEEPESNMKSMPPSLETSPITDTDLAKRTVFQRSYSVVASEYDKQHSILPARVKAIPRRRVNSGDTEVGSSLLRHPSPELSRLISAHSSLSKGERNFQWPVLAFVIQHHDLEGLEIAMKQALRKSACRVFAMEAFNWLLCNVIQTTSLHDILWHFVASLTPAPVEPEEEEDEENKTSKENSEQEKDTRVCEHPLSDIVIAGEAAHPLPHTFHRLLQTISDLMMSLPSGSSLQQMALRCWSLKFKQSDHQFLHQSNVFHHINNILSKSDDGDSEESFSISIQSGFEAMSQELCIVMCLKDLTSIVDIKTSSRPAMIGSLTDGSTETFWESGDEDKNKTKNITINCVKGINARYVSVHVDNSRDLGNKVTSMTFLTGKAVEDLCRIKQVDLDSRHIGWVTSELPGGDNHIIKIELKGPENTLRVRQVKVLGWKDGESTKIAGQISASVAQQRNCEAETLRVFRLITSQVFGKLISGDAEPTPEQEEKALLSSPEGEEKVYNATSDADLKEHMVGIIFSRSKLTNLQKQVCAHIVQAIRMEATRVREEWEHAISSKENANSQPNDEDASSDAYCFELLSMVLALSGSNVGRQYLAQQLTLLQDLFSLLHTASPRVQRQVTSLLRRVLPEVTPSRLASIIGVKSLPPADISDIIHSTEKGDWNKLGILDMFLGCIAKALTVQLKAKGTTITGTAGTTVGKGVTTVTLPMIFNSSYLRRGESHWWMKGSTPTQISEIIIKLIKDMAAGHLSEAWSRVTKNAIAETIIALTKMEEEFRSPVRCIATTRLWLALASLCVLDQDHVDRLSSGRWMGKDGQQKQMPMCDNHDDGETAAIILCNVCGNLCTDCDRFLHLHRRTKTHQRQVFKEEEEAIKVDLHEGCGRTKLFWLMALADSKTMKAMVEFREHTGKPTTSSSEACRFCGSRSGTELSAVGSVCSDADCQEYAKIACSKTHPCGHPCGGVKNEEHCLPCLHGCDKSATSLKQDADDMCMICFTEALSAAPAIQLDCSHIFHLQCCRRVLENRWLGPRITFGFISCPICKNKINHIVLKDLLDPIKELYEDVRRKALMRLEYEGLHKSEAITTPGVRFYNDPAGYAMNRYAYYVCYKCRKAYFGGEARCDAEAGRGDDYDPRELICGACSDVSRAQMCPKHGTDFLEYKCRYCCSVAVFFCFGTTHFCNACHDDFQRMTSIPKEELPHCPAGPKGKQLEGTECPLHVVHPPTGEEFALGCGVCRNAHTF
# UniProt Q14CX7, whole entry, looked up: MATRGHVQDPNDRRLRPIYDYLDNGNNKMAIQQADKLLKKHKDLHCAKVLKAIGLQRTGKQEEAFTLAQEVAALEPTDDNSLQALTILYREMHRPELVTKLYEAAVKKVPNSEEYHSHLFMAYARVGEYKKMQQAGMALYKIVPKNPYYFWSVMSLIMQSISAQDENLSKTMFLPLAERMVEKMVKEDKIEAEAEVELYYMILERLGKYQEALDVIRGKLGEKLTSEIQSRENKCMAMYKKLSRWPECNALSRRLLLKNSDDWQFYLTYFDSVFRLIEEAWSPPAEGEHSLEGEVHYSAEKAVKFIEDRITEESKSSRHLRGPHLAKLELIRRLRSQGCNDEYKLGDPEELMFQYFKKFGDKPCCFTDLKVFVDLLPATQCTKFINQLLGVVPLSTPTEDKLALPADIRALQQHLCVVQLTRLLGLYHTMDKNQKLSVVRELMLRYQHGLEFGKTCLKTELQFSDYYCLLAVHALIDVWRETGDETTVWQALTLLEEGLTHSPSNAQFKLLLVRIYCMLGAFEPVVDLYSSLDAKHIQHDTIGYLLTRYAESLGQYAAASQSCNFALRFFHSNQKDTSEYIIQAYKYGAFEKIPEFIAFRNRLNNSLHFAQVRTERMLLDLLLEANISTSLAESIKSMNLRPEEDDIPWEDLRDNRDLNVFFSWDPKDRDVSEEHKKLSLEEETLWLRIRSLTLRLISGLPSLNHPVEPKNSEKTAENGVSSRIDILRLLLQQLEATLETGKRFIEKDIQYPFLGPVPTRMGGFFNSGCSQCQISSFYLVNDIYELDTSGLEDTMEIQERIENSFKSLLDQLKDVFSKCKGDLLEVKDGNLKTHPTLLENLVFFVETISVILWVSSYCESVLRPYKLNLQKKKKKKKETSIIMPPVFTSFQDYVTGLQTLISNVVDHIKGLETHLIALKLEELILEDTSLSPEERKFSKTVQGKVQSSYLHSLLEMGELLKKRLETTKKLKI
# UniProt Q8IVS2: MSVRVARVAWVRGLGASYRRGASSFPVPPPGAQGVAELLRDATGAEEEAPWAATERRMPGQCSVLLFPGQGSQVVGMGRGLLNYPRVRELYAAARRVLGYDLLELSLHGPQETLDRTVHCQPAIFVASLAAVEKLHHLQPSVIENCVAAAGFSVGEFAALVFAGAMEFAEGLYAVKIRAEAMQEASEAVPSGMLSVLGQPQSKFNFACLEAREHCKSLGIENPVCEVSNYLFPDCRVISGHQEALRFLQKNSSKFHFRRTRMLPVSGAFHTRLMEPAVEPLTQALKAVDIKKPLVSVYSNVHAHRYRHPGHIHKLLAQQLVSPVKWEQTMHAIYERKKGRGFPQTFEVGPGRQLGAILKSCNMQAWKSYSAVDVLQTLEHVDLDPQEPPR
# UniProt P54920: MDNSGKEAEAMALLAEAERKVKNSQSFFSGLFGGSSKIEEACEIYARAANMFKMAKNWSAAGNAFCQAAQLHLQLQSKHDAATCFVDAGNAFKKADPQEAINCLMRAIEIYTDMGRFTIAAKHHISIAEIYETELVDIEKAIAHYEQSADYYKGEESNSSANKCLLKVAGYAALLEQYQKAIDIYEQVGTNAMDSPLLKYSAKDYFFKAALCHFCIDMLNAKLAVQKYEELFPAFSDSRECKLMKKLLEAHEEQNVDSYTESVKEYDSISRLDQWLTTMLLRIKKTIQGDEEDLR
# UniProt Q9UM54, 368-387: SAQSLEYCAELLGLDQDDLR
# The other results are listed elsewhere or left out. The data scatter; read single values as rough.
# Compound: ClCC(=O)N[C@@H]1CCCc2ccccc12
# Assay: log2 mean competition ratio of IA-DTB cysteine labelling (DMSO/compound) (log2 ratio); higher = stronger cysteine engagement by compound
# Conditions: 50 µM; treatment time: 4 h; cell line lysate: HEK293T
# Description: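 IA-DTB competitive cysteine chemoproteomics in HEK293T RIPA lysate. Lysates were treated with compound 29 or 30 at 50 or 200 µM for 4 h, then IA-DTB (500 µM, 1 h), trypsin-digested, NeutrAvidin-enriched and analysed by diaPASEF. Competition ratio = intensity DMSO / intensity compound (n=4 treated, n=64 DMSO); binding: mean log2 CR ≥ 1 and p ≤ 0.05 plus QC filters. Target is the cysteine site.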
row,Target,log2 mean competition ratio
1,MYO18A C811 (UniProt Q92614),-0.215
2,MRPL27 C88 (UniProt Q9P0M9),0.0139
3,NAPG C193 (UniProt Q99747),0.0733
4,MRPL50 C52 (UniProt Q8N5N7),-0.275
5,NAA35 C230 (UniProt Q5VZE5),-0.583
6,MYCBP2 C2951 (UniProt O75592),0.161
7,MTOR C674 (UniProt P42345),0.0767
8,MYO1E C447 (UniProt Q12965),0.0824
9,NAA25 C339 (UniProt Q14CX7),-0.0038
10,MT-ND3 C39 (UniProt Q8IVS2),0.409
11,NAPA C42 (UniProt P54920),0.108
12,MRPS7 C152 (UniProt Q9Y2R9),0.179
13,NAA15 C721,0.141
14,MYO6 C375 (UniProt Q9UM54),-0.131
15,MYCBP2 C4558 (UniProt O75592),-0.0219
16,MTHFSD C113 (UniProt Q2M296),-0.0672
17,MYO5B C681,0.271
18,MYO9A C735 (UniProt B2RTY4),-0.284
19,MTMR1 C58 (UniProt Q13613),-0.449
20,MTMR10 C314 (UniProt Q9NXD2),0.255

# Same assay, conditions: 200 µM; treatment time: 4 h; cell line lysate: HEK293T
row,Target,log2 mean competition ratio
1,MYO18A C811 (UniProt Q92614),0.116
2,MRPL27 C88 (UniProt Q9P0M9),-0.0685
3,NAPG C193 (UniProt Q99747),0.00605
4,MRPL50 C52 (UniProt Q8N5N7),-0.167
5,NAA35 C230 (UniProt Q5VZE5),0.259
6,MYCBP2 C2951 (UniProt O75592),0.103
7,MTOR C674 (UniProt P42345),-0.0457
8,MYO1E C447 (UniProt Q12965),0.0589
9,NAA25 C339 (UniProt Q14CX7),0.0663
10,MT-ND3 C39 (UniProt Q8IVS2),-0.0813
11,NAPA C42 (UniProt P54920),-0.133
12,MRPS7 C152 (UniProt Q9Y2R9),-0.383
13,NAA15 C721,-0.265
14,MYO6 C375 (UniProt Q9UM54),-0.243
15,MYCBP2 C4558 (UniProt O75592),-0.0667
16,MTHFSD C113 (UniProt Q2M296),0.0614
17,MYO5B C681,0.0766
18,MYO9A C735 (UniProt B2RTY4),0.438
19,MTMR1 C58 (UniProt Q13613),0.305
20,MTMR10 C314 (UniProt Q9NXD2),-0.129
